From PubChem BioAssay AID540256 (National Center for Advancing Translational Sciences (NCATS), 2011)
Several values for one entry are separate records, joined by “and”; a condition that tells them apart may be missing. Equal values may be shown once. Screen size: about 300,000 compounds; about 3,700 (1.2%) were called active. The inconclusive results got no clear call from the source; some entries with a clear call stand among them for comparison. The call rests on the fitted dose curve; tested in HEK293 cells. Where the call is inconclusive, the potency comes from a doubtful curve fit.

Experiment: qHTS for Inhibitors of binding or entry into cells for Lassa Virus; further: nearly all actives have a fitted effect of over 50% in size
Conditions: Lassa virus pseudotype entry inhibition, cell reporter; activity change, negative = inhibition: at 37.9 µM (top of the series) unless noted
On the % scale 0 is the no-effect control and ±100 the full control effect; potency means the concentration at half of the fitted maximal effect.

Row | Compound | activity change, negative = inhibition | Potency
1 | NNC(=O)c1c[nH]c2ccc(OCc3ccccc3)cc12 | inactive: -16.8% | –
2 | CCCOc1ccc(C(=O)NNC(=S)NC(=O)c2cccs2)cc1 | – | inconclusive: 7.94 µM [inhibitor, full curve, poor fit]
3 | Cn1c(-c2c(N)n(C3CCCC3)c3nc4ccccc4nc23)nc2ccccc21 | inactive: -0.278% | –
4 | NS(=O)(=O)c1ccc(NC(=O)COC(=O)c2c3c(nc4ccccc24)/C(=C\c2ccc4c(c2)OCO4)CCC3)cc1 | – | inconclusive: 16.4 µM [inhibitor, single point] and inconclusive: 12.6 µM [inhibitor, single point]
5 | C=CCN(c1ccccc1)S(=O)(=O)c1ccc(Cl)c(C(=O)OCC(=O)N(C)C2CCS(=O)(=O)C2)c1 (stereo not drawn) | – | inconclusive: 8.91 µM [inhibitor, partial curve, poor fit]
6 | Cc1ccc(NC(=O)c2ccc(OC(=O)COc3ccc(Cl)cc3C)cc2)cc1 | – | inconclusive: 35.5 µM [inhibitor, single point]
7 | C(=C\c1nnc2c3ccccc3ncn12)/c1ccccc1 | – | inconclusive: 29.1 µM [inhibitor, single point]
8 | CCOC(=O)N1CCN(C(=O)CNC(=O)c2ccc(Br)o2)CC1 | inactive: 4.07% | –
9 | O=C1C2CC=C(Cl)CC2C(=O)N1CNc1ccccn1 (stereo not drawn) | – | inconclusive: 6.31 µM [inhibitor, single point]
10 | COc1ccccc1Oc1ccc(N/C=C2/CCCC2=O)cc1 | – | inconclusive: 20.6 µM [inhibitor, single point]
11 | O=C(N/N=C/c1cc(Cl)ccc1O)c1ccc(Br)cc1 | – | active: 10 µM
12 | CCc1cccc(NC(=O)C(NS(=O)(=O)c2ccc3nc(C)sc3c2)C(C)C)c1 (stereo not drawn) | inactive: 25.4% [at 46.1 µM] | –
13 | CCOc1ccc(-c2cn3ccccc3n2)cc1[N+](=O)[O-] | – | inconclusive: 20 µM [inhibitor, single point]
14 | COc1cccc(NC(CNS(=O)(=O)c2ccc(Cl)cc2)c2ccccc2)c1 (stereo not drawn) | – | inconclusive: 35.5 µM [inhibitor, single point]
15 | COc1ccc(N(C)S(=O)(=O)c2ccc(Cl)c(C(=O)NCCc3ccc(Cl)cc3)c2)cc1 | – | inconclusive: 12.6 µM [inhibitor, partial curve]
16 | CCN(CC(=O)Nc1c(F)cccc1F)C(=O)c1ccc2c(c1)S(=O)(=O)N=C1CCCCCN12 | – | inconclusive: 5.62 µM [activator, single point]
17 | OCCN1CCN(C(c2ccc(Cl)cc2Cl)c2sc3nc(-c4ccco4)nn3c2O)CC1 (stereo not drawn) | inactive: 20.8% [at 46.1 µM] | –
18 | COc1cccc2c1C(=N)c1c(O)c3c(c(O)c1C2=O)CC(O)(C(C)=O)CC3OC1CC(N)C(O)C(C)O1 (stereo not drawn) | – | active: 0.631 µM
19 | Cc1cc(C(=O)OC(C)C(=O)Nc2nc(-c3ccccc3)cs2)c(C)o1 (stereo not drawn) | – | active: 13 µM
20 | COc1ccc(N=C2SC(CC(=O)Nc3ccccc3F)C(=O)N2Cc2ccco2)cc1 (stereo not drawn) | – | inconclusive: 16.4 µM [inhibitor, partial curve]
21 | CCc1cccc(NC(=O)C2CCC(CNS(=O)(=O)c3ccc4c(c3)CCCC(=O)N4)CC2)c1 (stereo not drawn) | inactive: 6.94% [at 46.1 µM] | –
22 | CCN(CC)S(=O)(=O)c1ccc(N2CCc3ccccc3C2)nc1 | inactive: 9.65% [at 46.1 µM] | –
23 | COc1ccc(C(=O)Cn2c(C(C)=O)nc3ccccc32)cc1 | – | inconclusive: 17.8 µM [inhibitor, single point]

Compounds shown so far that have four or more nitrogen atoms, in the order listed:
Row | Compound | activity change, negative = inhibition | Potency
3 | Cn1c(-c2c(N)n(C3CCCC3)c3nc4ccccc4nc23)nc2ccccc21 | inactive: -0.278% | –
7 | C(=C\c1nnc2c3ccccc3ncn12)/c1ccccc1 | – | inconclusive: 29.1 µM [inhibitor, single point]
16 | CCN(CC(=O)Nc1c(F)cccc1F)C(=O)c1ccc2c(c1)S(=O)(=O)N=C1CCCCCN12 | – | inconclusive: 5.62 µM [activator, single point]
17 | OCCN1CCN(C(c2ccc(Cl)cc2Cl)c2sc3nc(-c4ccco4)nn3c2O)CC1 (stereo not drawn) | inactive: 20.8% [at 46.1 µM] | –

Following part

Row | Compound | activity change, negative = inhibition | Potency
24 | O=C(N/N=C/c1ccc([N+](=O)[O-])o1)c1ccc(O)cc1 | – | inconclusive: 25.9 µM [inhibitor, single point]
25 | Cc1[nH]nc(C(=O)NN=Cc2ccccc2Cl)c1N=NN(C)C | – | inconclusive: 35.5 µM [inhibitor, single point]
26 | O=C(Nc1ccc2c(c1)nc1n2CCSC1)c1ccccc1 | – | inconclusive: 18.3 µM [inhibitor, single point]
27 | O=C(NC(=S)Nc1cc([N+](=O)[O-])ccc1O)c1ccc2c(c1)OCO2 | – | inconclusive: 6.31 µM [inhibitor, full curve, poor fit]
28 | Cc1cc(C(=O)Nc2cnn(Cc3ccc(Cl)cc3Cl)c2)no1 | – | inconclusive: 14.6 µM [inhibitor, single point]
29 | O=C(NCc1ccccc1)c1csc(-c2cccnc2)n1 | – | inconclusive: 0.794 µM [inhibitor, full curve]
30 | Cc1ccc(S(=O)(=O)NCCC(=O)NCCOc2ccccc2)cc1 | inactive: 2.8% | –
31 | Cc1c(/C=N/NC(=O)c2cccs2)c2ccccc2n1Cc1ccccc1Cl | – | active: 4.11 µM
32 | Cc1cc(C)cc(NC(=O)c2cnn(-c3ccc(C)c(C)c3)c2C2CCNCC2)c1 | – | inconclusive: 20 µM [inhibitor, single point]
33 | O=C(c1ccncc1)N(c1ccc2oc3c(c2c1)CCCC3)S(=O)(=O)c1ccc(F)cc1 | – | inconclusive: 11.2 µM [inhibitor, partial curve, poor fit]
34 | NS(=O)(=O)c1ccc(N=Nc2c(O)[nH]c3ccc(-c4cnco4)cc23)cc1 | – | active: 12.5 µM
35 | COc1ccc(-c2nnc(SCc3cccc(C#N)c3)o2)cc1 | – | inconclusive: 0.0082 µM [inhibitor, full curve, poor fit]
36 | O=C(COc1ccc(F)cc1)NN1C(=O)CSC1=S | inactive: -0.242% | –
37 | COc1ccc(NC(=O)CN(C)CC(=O)NCCc2ccc(F)cc2)cc1 | – | inconclusive: 3.16 µM [inhibitor, single point]
38 | O=C(Cc1c[nH]c2ccccc12)N/N=C/c1ccc(F)cc1 | – | inconclusive: 4.47 µM [inhibitor, full curve, poor fit]
39 | CCC(C)(C)n1nnnc1C(c1cc2cccc(C)c2[nH]c1=O)N1CCN(C(=O)c2ccco2)CC1 (stereo not drawn) | inactive: 3.31% | –
40 | CN1C(=O)NC(c2ccc(O)cc2)C(C(=O)c2cccs2)C1(O)C(F)(F)F (stereo not drawn) | inactive: 11.6% | –
41 | CN(c1cccc(NC(=O)CN(c2ccc(Cl)c(Cl)c2)S(=O)(=O)c2ccccc2)c1)S(C)(=O)=O | – | inconclusive: 35.5 µM [inhibitor, partial curve, poor fit]
42 | CCN(CCCNC(=O)c1cc2cc3ccc(OC)cc3nc2s1)c1cccc(C)c1 | inactive: -12.9% [at 46.1 µM] | –
43 | COc1cc(NC(=O)CN2C(=O)NC(C)(CC(C)C)C2=O)cc(OC)c1 (stereo not drawn) | – | inconclusive: 7.08 µM [inhibitor, partial curve, poor fit]
44 | O=C(c1ccccc1)c1coc(-c2ccccc2)c1 | – | inconclusive: 35.5 µM [inhibitor, single point]
45 | Cc1ccc(S(=O)(=O)Nc2cccc3cccnc23)cc1 | – | inconclusive: 35.5 µM [inhibitor, single point]
46 | Cc1nn(-c2ccccc2)c(C)c1C(=O)OC(C)C(=O)NC1CCCCC1 (stereo not drawn) | – | active: 5.01 µM

Row | Compound | activity change, negative = inhibition | Potency
47 | COc1ccc(Cl)cc1NC(=O)CN(C)C(=O)c1ccc(COc2ccccc2)cc1 | – | inconclusive: 11.2 µM [inhibitor, partial curve, poor fit]
48 | CC(=O)NC(c1ccc(C(C)C)cc1)c1c(O)ccc2ccccc12 (stereo not drawn) | – | inconclusive: 20 µM [inhibitor, partial curve, poor fit]
49 | Cc1ccc2c3c(c(SCC(=O)Nc4nonc4C)nc2c1)CCCC3 | – | inconclusive: 23.1 µM [inhibitor, single point]
50 | CN(C)c1ccc(C(=O)C(O)c2ccccc2Cl)cc1 (stereo not drawn) | inactive: 6.07% [at 46.1 µM] | –
51 | COc1ccc(C(CC(=O)O)NS(=O)(=O)c2ccc3c(c2)NC(=O)CO3)cc1 (stereo not drawn) | – | inconclusive: 0.562 µM [inhibitor, partial curve, poor fit]
52 | CCCC(=O)NC(c1ccc(OC)c(OC)c1)c1cc(Cl)c2cccnc2c1O (stereo not drawn) | – | inconclusive: 11.2 µM [inhibitor, partial curve, poor fit]
53 | COc1ccc(-n2nnnc2CNC(=O)C(=O)c2c[nH]c3ccccc23)cc1 | – | inconclusive: 5.01 µM [inhibitor, full curve, poor fit]
54 | O=C(COc1ccccc1-c1ccccc1)NCCN1C(=O)S/C(=C\c2cccnc2)C1=O | inactive: -10.5% | –
55 | CN(C)CCNC(=O)COc1ccc(C23CC4CC(CC(C4)C2)C3)cc1 | – | inconclusive: 11.2 µM [inhibitor, partial curve]
56 | Cn1cccc1-c1nc2ccc(NC(=O)c3cccs3)cc2[nH]1 | – | inconclusive: 25.1 µM [inhibitor, single point]
57 | Fc1cccc(Nc2c3c(nc4ccccc24)CCC3)c1 | – | inconclusive: 20 µM [inhibitor, partial curve, poor fit]
58 | Cc1ccc(C(=O)NN2C(=O)CSC2=S)cc1 | inactive: 8.03% | –
59 | CN(C)CC(O)COc1ccc(C(C)(C)c2ccc(OCC(O)CN(C)C)cc2)cc1 (stereo not drawn) | – | inconclusive: 15.8 µM [inhibitor, single point]
60 | Cc1cc(N2CCOCC2)c2c(N)c(Br)cc(C)c2n1 | inactive: 2.73% | –
61 | COc1ccc(NC(=O)Cn2cnc3sc(C)c(S(=O)(=O)N4CCN(c5ccccc5OC)CC4)c3c2=O)cc1OC | – | inconclusive: 7.08 µM [activator, full curve, poor fit]
62 | COc1ccc(S(=O)(=O)n2nc(-c3ccco3)nc2NCc2ccc(N(C)C)cc2)cc1 | – | inconclusive: 35.5 µM [inhibitor, single point]
63 | CN(C)C(CNC(=O)CSC(=S)N1CCCC1)c1ccccc1 (stereo not drawn) | inactive: 11.2% | –
64 | Cc1cc(=O)oc2c(C)c(OCC(=O)NCCCN3CCOCC3)ccc12 | inactive: 24.4% [at 46.1 µM] | –
65 | COc1cc(C(=O)NCC(c2ccco2)N2CCOCC2)cc(OC)c1OC (stereo not drawn) | inactive: 12% | –
66 | CNc1ccc(/C=C(\C#N)c2ccccn2)cc1[N+](=O)[O-] | – | inconclusive: 2.51 µM [activator, full curve]
67 | O=C(NCCN1CCOCC1)C1CC(=O)N(c2ccc(Cl)cc2)C1 (stereo not drawn) | inactive: -9.8% [at 46.1 µM] | –
68 | CCOC(=O)N1CCN(C(=O)CSc2ccc(-c3cccc(OC)c3)nn2)CC1 | – | inconclusive: 5.01 µM [inhibitor, full curve, poor fit]
